This assay deals with pig kidney FBPase K112A (Sus scrofa, UniProt P00636, K113A). In words: Malachite Green kinetic assay, K112A mutant. The following applies: enzyme K112A.

By UniProt entry, the sequences of proteins in these tests, tags left out.
UniProt P00636, whole entry K113A: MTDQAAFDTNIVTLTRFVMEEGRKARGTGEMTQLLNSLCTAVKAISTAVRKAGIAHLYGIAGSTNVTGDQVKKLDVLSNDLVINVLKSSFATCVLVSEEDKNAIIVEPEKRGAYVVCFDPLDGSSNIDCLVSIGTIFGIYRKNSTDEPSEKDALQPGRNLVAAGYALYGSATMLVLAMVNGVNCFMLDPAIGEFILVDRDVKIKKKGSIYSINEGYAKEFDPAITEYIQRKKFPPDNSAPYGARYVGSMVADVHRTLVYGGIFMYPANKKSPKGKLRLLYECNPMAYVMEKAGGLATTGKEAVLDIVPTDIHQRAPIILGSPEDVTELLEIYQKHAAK

The text below walks through data of paper PMC6386767, “Characterization of recombinant fructose-1,6-bisphosphatase gene mutations: evidence of inhibition/activation of FBPase protein by gene mutation” (Bioscience Reports, 2019).

The source holds more than one record for some entries. This list holds those alone. There may be further records. Values given together appear to be repeats on other runs, samples or individuals.

As for `Nc1ncnc2c1ncn2[C@@H]1O[C@H](COP(=O)(O)O)[C@@H](O)[C@H]1O`, the “AMP Hill coefficient” value is 1.0 and 1 ).
